Measured values reported in PMC11417359.

Sequences of proteins named here, by UniProt entry; tags and fusion partners are left off.
UniProt O54941: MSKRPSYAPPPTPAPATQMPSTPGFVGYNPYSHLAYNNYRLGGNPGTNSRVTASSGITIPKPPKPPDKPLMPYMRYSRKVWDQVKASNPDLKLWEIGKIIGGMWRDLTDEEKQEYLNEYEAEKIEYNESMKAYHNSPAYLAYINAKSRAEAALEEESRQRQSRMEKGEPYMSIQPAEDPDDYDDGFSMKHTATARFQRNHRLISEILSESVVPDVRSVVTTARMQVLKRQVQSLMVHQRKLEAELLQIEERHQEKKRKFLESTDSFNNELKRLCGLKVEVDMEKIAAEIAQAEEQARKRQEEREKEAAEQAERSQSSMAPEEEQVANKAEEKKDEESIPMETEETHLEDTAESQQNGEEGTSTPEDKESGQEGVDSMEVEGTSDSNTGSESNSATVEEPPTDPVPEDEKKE
UniProt Q3TKT4: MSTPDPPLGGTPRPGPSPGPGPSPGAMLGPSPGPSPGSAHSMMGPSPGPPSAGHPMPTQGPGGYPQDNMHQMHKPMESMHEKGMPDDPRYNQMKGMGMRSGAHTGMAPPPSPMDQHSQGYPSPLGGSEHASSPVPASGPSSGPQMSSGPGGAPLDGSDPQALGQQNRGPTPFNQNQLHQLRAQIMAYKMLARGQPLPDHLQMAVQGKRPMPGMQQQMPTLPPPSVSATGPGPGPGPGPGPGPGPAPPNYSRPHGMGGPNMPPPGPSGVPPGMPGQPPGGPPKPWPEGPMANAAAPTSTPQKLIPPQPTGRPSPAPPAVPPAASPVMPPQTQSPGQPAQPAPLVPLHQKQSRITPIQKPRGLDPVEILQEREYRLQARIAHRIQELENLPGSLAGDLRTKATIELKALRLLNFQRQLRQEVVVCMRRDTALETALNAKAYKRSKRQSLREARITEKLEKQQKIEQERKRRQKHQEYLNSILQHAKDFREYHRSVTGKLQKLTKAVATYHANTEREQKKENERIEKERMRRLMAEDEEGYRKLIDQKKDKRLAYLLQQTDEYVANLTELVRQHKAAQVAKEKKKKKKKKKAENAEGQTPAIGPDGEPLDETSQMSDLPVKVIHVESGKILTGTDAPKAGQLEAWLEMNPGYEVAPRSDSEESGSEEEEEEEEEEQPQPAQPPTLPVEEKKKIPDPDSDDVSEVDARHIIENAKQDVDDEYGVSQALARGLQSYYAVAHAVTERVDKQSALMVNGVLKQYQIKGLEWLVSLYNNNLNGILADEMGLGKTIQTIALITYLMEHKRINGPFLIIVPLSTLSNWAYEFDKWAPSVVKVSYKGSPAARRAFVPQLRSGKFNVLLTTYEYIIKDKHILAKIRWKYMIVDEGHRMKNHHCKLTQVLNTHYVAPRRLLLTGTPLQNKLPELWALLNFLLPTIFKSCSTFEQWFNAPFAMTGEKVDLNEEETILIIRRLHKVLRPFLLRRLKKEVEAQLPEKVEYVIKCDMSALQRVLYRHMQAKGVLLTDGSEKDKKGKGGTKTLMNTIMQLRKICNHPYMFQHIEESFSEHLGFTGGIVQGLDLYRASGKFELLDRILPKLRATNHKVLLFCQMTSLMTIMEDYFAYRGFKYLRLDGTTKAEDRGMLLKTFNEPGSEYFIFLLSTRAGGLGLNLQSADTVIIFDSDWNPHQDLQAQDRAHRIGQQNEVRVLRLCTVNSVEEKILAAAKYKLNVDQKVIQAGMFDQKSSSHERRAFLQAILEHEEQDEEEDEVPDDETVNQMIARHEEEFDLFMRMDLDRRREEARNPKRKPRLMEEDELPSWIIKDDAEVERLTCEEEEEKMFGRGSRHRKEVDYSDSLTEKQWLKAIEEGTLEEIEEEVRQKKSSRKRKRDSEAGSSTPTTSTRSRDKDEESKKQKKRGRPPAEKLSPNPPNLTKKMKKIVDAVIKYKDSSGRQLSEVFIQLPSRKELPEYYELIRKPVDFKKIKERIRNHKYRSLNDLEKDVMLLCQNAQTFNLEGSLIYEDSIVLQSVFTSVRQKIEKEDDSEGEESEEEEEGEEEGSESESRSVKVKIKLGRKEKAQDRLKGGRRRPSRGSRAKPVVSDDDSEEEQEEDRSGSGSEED
UniProt Q91ZW3: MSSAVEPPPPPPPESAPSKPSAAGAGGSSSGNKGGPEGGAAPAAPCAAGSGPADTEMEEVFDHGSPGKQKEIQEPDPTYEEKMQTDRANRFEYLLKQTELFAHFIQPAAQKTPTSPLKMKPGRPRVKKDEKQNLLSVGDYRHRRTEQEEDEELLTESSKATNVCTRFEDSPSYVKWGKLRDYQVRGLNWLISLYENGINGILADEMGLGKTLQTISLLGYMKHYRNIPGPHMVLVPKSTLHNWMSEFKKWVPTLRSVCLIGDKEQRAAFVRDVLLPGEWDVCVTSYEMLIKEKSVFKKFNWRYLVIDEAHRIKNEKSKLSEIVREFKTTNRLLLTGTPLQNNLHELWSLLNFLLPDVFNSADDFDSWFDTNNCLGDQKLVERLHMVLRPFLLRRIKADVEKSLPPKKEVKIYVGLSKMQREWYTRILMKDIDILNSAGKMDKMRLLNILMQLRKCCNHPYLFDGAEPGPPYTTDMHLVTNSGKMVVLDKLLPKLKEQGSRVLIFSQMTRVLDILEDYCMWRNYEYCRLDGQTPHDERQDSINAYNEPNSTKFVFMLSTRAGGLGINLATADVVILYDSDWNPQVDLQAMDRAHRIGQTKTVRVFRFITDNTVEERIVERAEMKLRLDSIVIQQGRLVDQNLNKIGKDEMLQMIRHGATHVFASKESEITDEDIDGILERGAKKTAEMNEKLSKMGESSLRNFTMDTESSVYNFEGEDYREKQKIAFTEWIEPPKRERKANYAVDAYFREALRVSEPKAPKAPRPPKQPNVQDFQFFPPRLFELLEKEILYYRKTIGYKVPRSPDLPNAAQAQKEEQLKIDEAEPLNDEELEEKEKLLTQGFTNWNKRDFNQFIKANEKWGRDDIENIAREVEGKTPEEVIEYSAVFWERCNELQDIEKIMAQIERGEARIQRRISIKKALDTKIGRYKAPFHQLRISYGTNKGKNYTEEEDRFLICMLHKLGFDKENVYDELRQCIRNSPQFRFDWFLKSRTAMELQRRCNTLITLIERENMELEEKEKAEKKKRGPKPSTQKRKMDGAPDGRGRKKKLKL

Molecular target: T1, HSF5 (fifth member of the heat shock factor family) (mouse (endogenous in testis)) (UniProt Q5ND04)
T1 sequence: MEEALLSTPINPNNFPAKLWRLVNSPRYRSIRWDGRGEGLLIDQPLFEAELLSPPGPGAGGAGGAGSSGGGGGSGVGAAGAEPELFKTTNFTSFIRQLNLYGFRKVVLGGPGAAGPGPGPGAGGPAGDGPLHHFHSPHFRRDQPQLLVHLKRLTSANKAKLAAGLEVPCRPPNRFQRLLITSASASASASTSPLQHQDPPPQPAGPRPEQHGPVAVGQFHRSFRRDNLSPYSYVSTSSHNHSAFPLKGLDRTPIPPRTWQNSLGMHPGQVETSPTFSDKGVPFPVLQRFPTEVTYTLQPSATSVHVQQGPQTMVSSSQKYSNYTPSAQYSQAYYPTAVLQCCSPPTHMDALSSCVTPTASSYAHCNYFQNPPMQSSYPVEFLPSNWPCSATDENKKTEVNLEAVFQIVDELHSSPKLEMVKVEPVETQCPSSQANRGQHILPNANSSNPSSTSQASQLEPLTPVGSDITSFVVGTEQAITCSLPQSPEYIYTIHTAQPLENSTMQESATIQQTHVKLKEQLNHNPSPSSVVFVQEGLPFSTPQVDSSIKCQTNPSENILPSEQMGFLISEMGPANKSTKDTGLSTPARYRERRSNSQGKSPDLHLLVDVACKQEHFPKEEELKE
Experiment: affinity purification with mass spectrometry; co-IP/MS: Hsf5+/+ and Hsf5-/- testis lysates (20 mM Tris-Cl pH 7.4, 150 mM NaCl, 1% NP-40, 0.25% sodium deoxycholate), HSF5 antibodies overnight, protein A/G beads, five washes with 500 mM NaCl wash buffer; eluates analysed by DDA mass spectrometry

| binding | Substance |
| --- | --- |
| binds | SMARCE1 (from UniProt O54941 1-411) |
| binds | SMARCA4 (from UniProt Q3TKT4 1-1613) |
| binds | SMARCA5 (from UniProt Q91ZW3 1-1051) |

No constants are given. Whether binding was seen depends on the method and setting. In cells and extracts the contact can be indirect. A yes stands for co-enrichment or nearness to the bait. Other partners may have been found.
